Some of the results follow. Some tests of the compounds listed are not included; inactive here does not mean inactive elsewhere.
assay: murine CD8 T cell vesicle adhesion modulation – mouse 2C CD8+ T cells, flow cytometry, primary screen (AID 2052); details: 2C CD8+ T cell-vesicle binding, measured here: CD8+ vesicle-bound cell fraction, at 7 µM, stronger effect = lower value;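 note: binding gate set so that unloaded-vesicle control wells show 10% double positive cells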
How it was run: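 System: murine 2C transgenic CD8+ T lymphocytes; also added: QL9-loaded Drosophila micro-vesicles; times: binding 1.5 h at 37 °C; measured by: flow cytometry, PE anti-B7-1 (FL2) versus Alexa647 anti-CD8 (FL8), PFA-fixed; control set: Peptide-free naked vesicles (low) and QL9 vesicles with 0.7% DMSO vehicle (high)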

SMILES	double positive events [%]
COc1ccc(Cl)cc1C(=O)NCC1(N(C)C)CCCCC1	56.3
COc1cccc(C(=O)NCC2(N3CCCCC3)CCCCC2)c1	19.8
O=C(NCC1(N2CCCCC2)CCCCC1)c1cccc(Cl)c1	17.5
CN(C)C1(CNC(=O)c2ccc(Br)cc2)CCCCC1	55.2
COc1cc(C(=O)NCC2(N(C)C)CCCCC2)c([N+](=O)[O-])cc1OC	10.6
COc1ccc(Br)c(C(=O)NCC2(N3CCCCC3)CCCCC2)c1	11.9
CC(C)Oc1ccc(C(=O)NCC2(N(C)C)CCCCC2)cc1	63.2
CN(C)c1cccc(C(=O)NCC2(N(C)C)CCCCC2)c1	53.4
COc1cc(SC)ccc1C(=O)NCC1(N(C)C)CCCCC1	34.5
CCCCC(CC)C(=O)N1CCN(C/C=C/c2ccccc2)CC1 (stereo not given)	38
CC(C)N1C(=O)CC2(CCN(CCOC(=O)C(O)(c3ccccc3)c3ccccc3)CC2)C1=O	0.7
Cc1ccc(C(=O)NCC2(N3CCCCC3)CCCCC2)cc1	11.3
O=C(NCC1(N2CCCCC2)CCCCC1)c1cc([N+](=O)[O-])ccc1Cl	17.8
O=C(NCC1(N2CCCCC2)CCCCC1)c1cc(F)c(F)cc1Cl	8.3
C=CCN1CCN(CCOC(=O)C(O)(c2ccccc2)c2ccccc2)CC1	32.3
COc1ccc(C(=O)NCC2(N(C)C)CCCCC2)cc1	58.9
O=C(NCC1(N2CCCCC2)CCCCC1)c1cccc(Br)c1	14.3
Cc1cc(C(=O)NCC2(N3CCCCC3)CCCCC2)ccc1[N+](=O)[O-]	20.6
CN(C)c1ccc(C(=O)NCC2(N(C)C)CCCCC2)cc1	32.5
Cc1ccccc1C(=O)NCC1(N2CCCCC2)CCCCC1	10.7
